Measured values as given in article PMC10647249.
No constants are given. Whether binding was seen depends on the method and setting. Binding can be weak; no strength is given. Tags and fused reporters may be left off the sequences shown. For some assays here: In cells and extracts the contact can be indirect.

Columns and labels:
[1] = biological target: OsCIPK9 (yeast two-hybrid fusion) (rice (japonica Nipponbare)); assay: two-hybrid; MatchMaker GAL4 Two-Hybrid System, pGADT7 and pGBKT7 constructs co-transformed into yeast AH109; transformants on SD/-Leu/-Trp (DDO), interaction screened on SD/-Leu/-Trp/-His/-Ade (QDO)
[2] = biological target: OsCIPK9 (split luciferase fusion) (rice); assay: split reporter; firefly luciferase complementation imaging (LCI) in N. benthamiana leaf epidermal cells; pCAMBIA-nLUC and pCAMBIA-cLUC constructs delivered by Agrobacterium EHA105; LUC activity imaged with a Nightshade LB 985 system

Binder | binding [1] | binding [2]
OsSOS3 (yeast two-hybrid fusion) (protein, UniProt Q75KU4 1-210) MGCASSKQFKRPPGYEEPAVLAAQTTFTVNEVEALRELYNKMSYSIIKDGLIHKEEFQLALFRNSRKANLFADRVFDLFDLKRNGVIEFGEFVRSLSVFHPKAPKSEKTAFAFKLYDLRGTGYIEKEELREMVLALLDESDLHLSECAVEAIVDNTFSQADSNGDGRIDPEEWEEFVKANPASLRNMSLPYLQDITMAFPSFVMHSEAHD | binds | 
OsSOS3 (split luciferase fusion) (protein, UniProt Q75KU4 1-210) MGCASSKQFKRPPGYEEPAVLAAQTTFTVNEVEALRELYNKMSYSIIKDGLIHKEEFQLALFRNSRKANLFADRVFDLFDLKRNGVIEFGEFVRSLSVFHPKAPKSEKTAFAFKLYDLRGTGYIEKEELREMVLALLDESDLHLSECAVEAIVDNTFSQADSNGDGRIDPEEWEEFVKANPASLRNMSLPYLQDITMAFPSFVMHSEAHD |  | binds
